# PubChem BioAssay AID445 (National Center for Advancing Translational Sciences (NCATS), 2006)
# Some of the results follow. Shown are side measurements of this screen, not its main read-out; they come without a call. Compounds called inactive in the main read-out are mostly missing here. The note in brackets gives the kind of curve behind each potency; many fits are weak.
# Assay: IkB Signaling
# Conditions: ABC-DLBCL IkBa-CBG/CBR dual luciferase ratio (green luciferase fused to IkBa over red control in OCI-Ly3 lymphoma cells), 4 h
# Summary of the method: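 In this assay, an IκBα–CBG68 fusion accumulates when IKK-driven degradation is blocked; native CBR normalizes for cell number. OCI-Ly3 cells were treated 4 h with compound and doxycycline, then green and red light read after Chroma-Glo addition.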
# [1] = measured here: control luc red channel unless noted
smiles,measurement,setting,value
COc1ccccc1CNC(=O)C(C)n1c(=O)cc(C(F)(F)F)c2c(C)nn(C)c21 (stereo not drawn),AC50,[1],"10 µM [falling, partial curve]"
CCOc1cccc(NC(=O)C2CCCN(S(=O)(=O)c3ccc(OC)cc3)C2)c1 (stereo not drawn),AC50,[1],"31.6 µM [falling, single point]"
Cc1ccc(C)c(CSc2nc3ccncc3n2Cc2nc(-c3ccccc3Cl)oc2C)c1,AC50,[1],"6.31 µM [falling, partial curve]"
Cc1ccc(S(=O)Cc2nc(-c3ccc(C(=O)NC(C)c4ccccc4)cc3)oc2C)cc1 (stereo not drawn),AC50,[1],"12.6 µM [falling, partial curve]"
COC(=O)c1ccc(C(=O)OC)c(NC(=O)c2c(-c3ccccc3)c(-c3ccccc3)nn(C)c2=O)c1,AC50,[1],"39.8 µM [falling, single point]"
Cc1ccc2c(c1)nc(SCC(O)c1ccc(Br)cc1)n2C (stereo not drawn),AC50,[1],"25.1 µM [falling, partial curve]"
CC(=O)Nc1cccc(-c2nc3ccccc3c(=O)o2)c1,AC50,[1],"15.8 µM [falling, partial curve]"
COc1ccc(-n2c(=O)c3sc4ccccc4c3n(Cc3ccccc3)c2=O)cc1,AC50,[1],"3.98 µM [rising, single point]"
Cc1ccc2c(CNC3CCC(C)CC3)c(C(=O)O)n(Cc3cccc(F)c3)c2c1 (stereo not drawn),AC50,[1],"25.1 µM [falling, partial curve]"
CC(=O)c1cccc(NC(=O)Cn2c(C)c3cnn(-c4ccccc4)c(=O)c3c2C)c1,AC50,[1],"20 µM [falling, single point]"
CC1CCN(c2nc3ccc(C(=O)NCc4ccc(Cl)cc4)cc3s2)CC1,AC50,[1],"2.51 µM [falling, partial curve]"
COc1ccc(C2CC(=O)N(CC(=O)Nc3ccc(C(F)(F)F)cc3)c3ccccc3S2)cc1 (stereo not drawn),AC50,[1],"3.98 µM [falling, partial curve]"
CN(Cc1ccccc1)c1nc2c(c(=O)n(C)c(=O)n2C)n1CCCc1ccccc1,AC50,[1],"25.1 µM [falling, partial curve]"
COC(=O)c1ccc(OC)c(Cn2c(=O)n(-c3ccc(C)cc3)c(=O)c3c2cnn3C)c1,AC50,[1],"15.8 µM [falling, partial curve]"
COc1ccc(C(=O)Nc2ccc3nc(SCC(=O)N4CCOCC4)sc3c2)cc1,AC50,[1],"6.31 µM [falling, partial curve]"
CCOC(=O)C1=C(CNCCc2ccc(Cl)cc2)NC(=O)NC1c1ccc2c(c1)OCO2 (stereo not drawn),AC50,[1],"25.1 µM [falling, single point]"
O=C(Cn1c(=O)nc(-c2ccccc2)c2cc(Cl)ccc21)NCCCc1ccccc1,AC50,[1],"15.8 µM [falling, partial curve]"
COc1cc2nc(N3CCN(C(=O)[C@H]4COc5ccccc5O4)CC3)nc(N)c2cc1OC,AC50,[1],"39.8 µM [falling, partial curve, poor fit] [measured here: IkB-luc green channel]"
COc1cccc(CNC(=O)c2c3c(nc4ccccc24)C(=O)N(C2CCCCC2)C3)c1,AC50,[1],"25.1 µM [falling, partial curve]"
COc1ccc(-c2nc(SCC(=O)N3CCC(C)CC3)n[nH]2)cc1,AC50,[1],"39.8 µM [falling, single point]"
Cc1ccc(Cl)cc1NC(=O)/C(C#N)=C\c1cn(Cc2ccc(F)cc2)c2ccccc12,AC50,[1],"0.631 µM [falling, full curve, poor fit]"
Fc1ccc(CNc2cc(-c3ccccc3)nc3nncn23)cc1,AC50,[1],"20 µM [falling, partial curve]"
Cc1ccccc1C(=O)Nc1ccc2nc(SCCOc3ccccc3)sc2c1,AC50,[1],"0.794 µM [falling, partial curve]"
CCOC(=O)c1c(S(=O)(=O)NCC(=O)NCc2ccc(C)cc2)c(C)n(C)c1C,AC50,[1],"0.0158 µM [falling, full curve, poor fit]"
O=C(NCc1ccc(F)cc1)c1cc2c(s1)-c1ccccc1SC2,AC50,[1],"12.6 µM [falling, partial curve]"
O=C(CCCn1c(=O)c2ccccc2n(CC(=O)Nc2ccc(F)cc2F)c1=O)NCc1ccccc1Cl,AC50,[1],"12.6 µM [falling, partial curve]"
CCOc1ncccc1C(=O)OCc1cc(=O)oc2c(C)c(C)ccc12,AC50,[1],"0.0794 µM [falling, full curve]"
CCCCOC(=O)c1ccc(NC(=O)/C(C#N)=C/c2ccc(-c3ccccc3)o2)cc1,AC50,[1],"0.398 µM [falling, full curve]"
COc1ccc(S(=O)(=O)c2ccc(OC)c(OC)c2)cc1OC,AC50,[1],"15.8 µM [rising, partial curve]"
CN(C)c1ccc(CNC(=O)C(Cc2ccccc2)NS(=O)(=O)c2ccc3c(c2)oc(=O)n3C)cc1 (stereo not drawn),AC50,[1],"25.1 µM [falling, single point]"
O=S(=O)(CC(CN1CCCC1)N1CCCC1)c1ccc2ccccc2c1 (stereo not drawn),AC50,[1],"0.398 µM [falling, full curve]"
Cc1ccc(S(=O)(=O)Nc2cccc(-c3cn4ccsc4n3)c2)cc1,AC50,[1],"12.6 µM [falling, partial curve]"
CN1C(=O)c2ccccc2Sc2ccc(NC(=O)COc3ccc(Cl)cc3)cc21,AC50,[1],"20 µM [falling, partial curve]"
Cc1ccnc2ccc(-c3nc4ccccc4o3)cc12,AC50,[1],"25.1 µM [falling, single point]"
COc1ccc(-n2c(Cc3cccn3C)nnc2SCC(=O)Nc2cc(Cl)ccc2OC)cc1,AC50,[1],"6.31 µM [falling, partial curve]"
CCn1c(NC(=O)Nc2ccccc2OC)nc2ccccc21,AC50,[1],"0.398 µM [falling, full curve]"
COc1cccc(C2Nc3ccccc3-c3nnc(SCc4ccccc4)nc3O2)c1OC (stereo not drawn),AC50,[1],"12.6 µM [falling, partial curve]"
Cc1ccc(S(=O)(=O)c2nc(-c3ccccc3)oc2SCC(=O)NC2CCCCC2)cc1,AC50,[1],"15.8 µM [falling, partial curve]"
O=C(Nc1ccc(F)c(Cl)c1)C1CCCN1S(=O)(=O)c1ccc(F)cc1 (stereo not drawn),AC50,[1],"20 µM [falling, single point]"
c1csc(-c2nnsc2-c2nc3ccccc3[nH]2)c1,AC50,[1],"12.6 µM [falling, partial curve]"
O=C(c1cc(-c2cccs2)on1)N1CCc2ccccc2C1,AC50,[1],"7.94 µM [falling, partial curve]"
Cc1cc(-c2nc3ccccc3s2)ccc1NC(=O)c1cc(Cl)ccc1Cl,AC50,[1],"0.126 µM [rising, full curve]"
CCc1ccc(N2C(=O)CS(=O)(=O)C23C(=O)N(Cc2ccccc2F)c2ccccc23)cc1 (stereo not drawn),AC50,[1],"12.6 µM [falling, partial curve]"
CCOc1cc(C2c3c(oc4ccccc4c3=O)C(=O)N2Cc2ccccc2Cl)ccc1O (stereo not drawn),AC50,[1],"7.94 µM [falling, single point]"
O=C(N/N=C\c1ccc2c(c1)CCC2)c1ccccc1O,AC50,[1],"2 µM [falling, partial curve]"
Cc1ccc(Nc2ncnc3nc[nH]c23)cc1Cl,AC50,[1],"12.6 µM [falling, partial curve]"
COc1ccc(C2CC(=O)c3c([nH]c(C(=O)OCCOc4ccccc4)c3C)C2)cc1OC (stereo not drawn),AC50,[1],"12.6 µM [rising, partial curve]"
Cc1cc(NC(=O)Nc2ccc(N(C)C)cc2)c2cc(F)cc(F)c2n1,AC50,[1],"3.16 µM [falling, full curve]"
Cc1cc(NC(=O)CN2C(=O)CSc3ccc(S(=O)(=O)N(C)C)cc32)ccc1Br,AC50,[1],"10 µM [falling, partial curve]"
CC(C)CC(/C(O)=C(\C#N)c1nc2ccccc2[nH]1)N1C(=O)c2ccccc2C1=O (stereo not drawn),AC50,[1],"10 µM [falling, partial curve]"
CSc1ccc(CCNC(=O)c2ccc3c(c2)nc2n3CCOC2)cc1,AC50,[1],"20 µM [falling, single point]"
Cc1ccc(NC(=O)c2ccc(F)c(S(=O)(=O)N3CCc4ccccc4C3)c2)cc1F,AC50,[1],"10 µM [falling, partial curve]"
Cc1ccc(-n2c(SCC(=O)N3CCC(C)CC3)nc3c([nH]c4ccccc43)c2=O)cc1,AC50,[1],"3.16 µM [rising, full curve, poor fit]"
CCOC(=O)c1[nH]c2c(c1C)C(=O)CC(c1ccc(F)cc1)C2 (stereo not drawn),AC50,measured here: IkB-luc green channel,"3.98 µM [rising, full curve]"
same,AC50,measured here: control luc red channel,"1.58 µM [rising, full curve, poor fit]"
CCOC(=O)c1scc(-c2ccc(C)cc2)c1S(=O)(=O)Nc1ccc(F)c(F)c1,AC50,[1],"12.6 µM [falling, partial curve]"
Cn1c(=O)n(CCCc2ccccc2)c(=O)c2c1nc1n2CCN1c1ccccc1,AC50,[1],"31.6 µM [falling, single point]"
CCOC(=O)c1ccc(NC(=O)CN2C(=O)CC(c3ccc(C)c(C)c3)=Nc3ccccc32)cc1,AC50,[1],"20 µM [rising, partial curve]"
CCOC(=O)N1CCc2c(sc(NCc3sccc3C)c2C(=O)Nc2ccccc2OCC)C1,AC50,[1],"25.1 µM [falling, partial curve]"
CCOc1ccc(CCNC(=O)c2ccc3c(c2)N(Cc2cccc(Cl)c2)C(=O)c2ccccc2S3(=O)=O)cc1OCC,AC50,[1],"0.398 µM [rising, full curve]"
CCCCNC1C(CC)C(CCC)C(C#N)(C#N)C1(C#N)C#N (stereo not drawn),AC50,[1],"7.94 µM [falling, partial curve]"
Cc1ccc(NC(=O)CSc2nnc3ccc4ccccc4n23)cc1,AC50,[1],"1.26 µM [rising, full curve]"
Cc1cccc(C(=O)NCC(c2ccco2)S(=O)(=O)c2cccs2)c1 (stereo not drawn),AC50,[1],"5.01 µM [falling, full curve, poor fit]"

# Shown as tab-separated lines: part of the list above.
smiles	measurement	setting	value
COc1ccc(-n2c(=O)c3sc4ccccc4c3n(Cc3ccccc3)c2=O)cc1	AC50	[1]	3.98 µM [rising, single point]
Cc1ccc2c(CNC3CCC(C)CC3)c(C(=O)O)n(Cc3cccc(F)c3)c2c1 (stereo not drawn)	AC50	[1]	25.1 µM [falling, partial curve]
CC(=O)c1cccc(NC(=O)Cn2c(C)c3cnn(-c4ccccc4)c(=O)c3c2C)c1	AC50	[1]	20 µM [falling, single point]
CC1CCN(c2nc3ccc(C(=O)NCc4ccc(Cl)cc4)cc3s2)CC1	AC50	[1]	2.51 µM [falling, partial curve]
COc1ccc(C2CC(=O)N(CC(=O)Nc3ccc(C(F)(F)F)cc3)c3ccccc3S2)cc1 (stereo not drawn)	AC50	[1]	3.98 µM [falling, partial curve]
CN(Cc1ccccc1)c1nc2c(c(=O)n(C)c(=O)n2C)n1CCCc1ccccc1	AC50	[1]	25.1 µM [falling, partial curve]
COC(=O)c1ccc(OC)c(Cn2c(=O)n(-c3ccc(C)cc3)c(=O)c3c2cnn3C)c1	AC50	[1]	15.8 µM [falling, partial curve]
COc1ccc(C(=O)Nc2ccc3nc(SCC(=O)N4CCOCC4)sc3c2)cc1	AC50	[1]	6.31 µM [falling, partial curve]
CCOC(=O)C1=C(CNCCc2ccc(Cl)cc2)NC(=O)NC1c1ccc2c(c1)OCO2 (stereo not drawn)	AC50	[1]	25.1 µM [falling, single point]
O=C(Cn1c(=O)nc(-c2ccccc2)c2cc(Cl)ccc21)NCCCc1ccccc1	AC50	[1]	15.8 µM [falling, partial curve]
COc1cc2nc(N3CCN(C(=O)[C@H]4COc5ccccc5O4)CC3)nc(N)c2cc1OC	AC50	[1]	39.8 µM [falling, partial curve, poor fit] [measured here: IkB-luc green channel]
COc1cccc(CNC(=O)c2c3c(nc4ccccc24)C(=O)N(C2CCCCC2)C3)c1	AC50	[1]	25.1 µM [falling, partial curve]
COc1ccc(-c2nc(SCC(=O)N3CCC(C)CC3)n[nH]2)cc1	AC50	[1]	39.8 µM [falling, single point]
Cc1ccc(Cl)cc1NC(=O)/C(C#N)=C\c1cn(Cc2ccc(F)cc2)c2ccccc12	AC50	[1]	0.631 µM [falling, full curve, poor fit]
Fc1ccc(CNc2cc(-c3ccccc3)nc3nncn23)cc1	AC50	[1]	20 µM [falling, partial curve]
Cc1ccccc1C(=O)Nc1ccc2nc(SCCOc3ccccc3)sc2c1	AC50	[1]	0.794 µM [falling, partial curve]
